PubChem BioAssay AID1259291, Sanger Institute – 2017
Test: 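Genes needed for HT29 colorectal cancer cell survival or for sensitivity to drugs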 (primary screen). System: HT29 human colorectal cancer cells. Reagents: siRNA pool against human genes. Challenge: anchor drugs added a day after transfection: BYL719 at 1 µM, cetuximab at 5 µg/ml or trametinib at 10 nM, or DMSO vehicle alone. Detection: 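Cell viability as a fraction of the non-targeting pool, mean of replicates, robust z-scores from control wells; synergy scores for BYL719 (1 µM), cetuximab (5 µg/ml), trametinib (10 nM)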. Reading the numbers: robust z-score, knock-down alone: higher = more viable cells. Hit rule: 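a knock-down alone scoring under -3 on robust z-score is called essential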. Meaning of the calls: active = essential (knock-down alone); inactive = no change alone.
This is an unselected part of 794 deposited reagents. In the full data, 15 (1.9%) got an active call. 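Calls rest on knock-down alone; drug synergy scores do not affect them; drugs added a day post-transfection, DMSO vehicle as comparison.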 Entries without a mark were called inactive. Further read-outs or replicates are left out here. Reagent sequences are not shown. Not given: the amount of reagent, the time to read-out.

With PINK1, what was measured?
robust z-score, knock-down alone: -0.647

With CAMK2A, how do the results read?
robust z-score, knock-down alone: 0.552

With RIOK3, how do the results read?
robust z-score, knock-down alone: 0.552

With BRWD1, how do the results read?
robust z-score, knock-down alone: -0.32

What is on record for SOX9?
robust z-score, knock-down alone: 0.552

Which result is listed for ALK?
robust z-score, knock-down alone: 0.552

What did the screen give for CALM1?
robust z-score, knock-down alone: 0.552

With MYLK2, what does the deposit list?
robust z-score, knock-down alone: -0.664

Which result is listed for CLK2?
robust z-score, knock-down alone: 0.552

What is on record for PIK3C2G?
robust z-score, knock-down alone: 0.552

What did the screen give for WIPF1?
robust z-score, knock-down alone: 0.552

For IPMK, how do the results read?
robust z-score, knock-down alone: 0.552

2 consecutive entries already listed:
MYLK2: robust z-score, knock-down alone = -0.664
CLK2: robust z-score, knock-down alone = 0.552

The listing continues.
With PDGFRA, what does the deposit list?
robust z-score, knock-down alone: 0.552

Which result is listed for EPHB3?
robust z-score, knock-down alone: -1.18

How did the screen score STK35?
robust z-score, knock-down alone: 0.552

Which result is listed for PDK1?
robust z-score, knock-down alone: 0.552

With NF1, what was measured?
robust z-score, knock-down alone: 0.271

For CNOT1, how do the results read?
robust z-score, knock-down alone: -1.66

With PANK3, what was measured?
robust z-score, knock-down alone: 0.552
